Measured values taken from article PMC13315262.
Where a chain is given by its changes, count along the chain named. Names and notes keep the numbering of the source. Results are given in words; binding and its absence hold for the method and conditions named. Some entries that bind do so weakly or less than the wild type.

Protein sequences, listed by entry. Tags and fused reporters are not part of them.
UniProt Q96LB1: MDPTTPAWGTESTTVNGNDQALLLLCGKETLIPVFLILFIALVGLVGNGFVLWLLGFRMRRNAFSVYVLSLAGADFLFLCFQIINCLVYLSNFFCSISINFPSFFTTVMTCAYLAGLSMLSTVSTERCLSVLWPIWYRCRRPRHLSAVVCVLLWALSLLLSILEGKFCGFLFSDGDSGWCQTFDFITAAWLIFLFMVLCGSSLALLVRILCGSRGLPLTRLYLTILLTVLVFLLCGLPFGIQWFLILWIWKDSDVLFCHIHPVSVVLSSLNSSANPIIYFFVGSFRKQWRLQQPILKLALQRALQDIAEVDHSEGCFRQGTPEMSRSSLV

B1: Nanobody Sim4784 R101E, monomeric (VHH)
VHH: QVQLQESGGGLVQAGGSLRLSCAASGTISPPTYMGWYRQAPGKERELVASIGAGSNTNYADSVKGRFTISRDNAKNTVYLQMNSLKPEDTAVYYCAAIFGELWYHLYWGQGTQVTVSS
B2: Nanobody Sim4784 W103D, monomeric (VHH)
VHH: B1 VHH with E101R, W103D
B3: Nanobody Sim4784 W103G, monomeric (VHH)
VHH: B1 VHH with E101R, W103G

Each binder was assayed against MAS-related GPR family member X2 (MRGPRX2), FLAG-tagged, on transfected HEK293T cells (human) (UniProt Q96LB1) (assay: flow cytometry on cells; monomeric V5-tagged nanobody at the indicated concentrations, 1 hour (methods: 1-2 h) at 4 °C, on HEK293T cells transiently transfected with human FLAG-MRGPRX2 or empty vector (pcDNA); HBS + 0.1% BSA + 2 mM calcium; detected with anti-V5-APC; specific MRGPRX2 binding normalized to 1 μM WT; only the binder purified).

Q: Which binding does the source give for B1 here?
A: binds weakly

Q: B2 was tested. Which binding did it give?
A: binds weakly

Q: For B3, which binding is on record?
A: binds weakly
